Laboratory results: PubChem BioAssay AID1347075 (National Center for Advancing Translational Sciences (NCATS), 2019)
Hit rate of the full screen: of about 400,000 compounds, about 5,500 (1.4%) were called active. This list was built around the results that the source calls inconclusive (neither active nor inactive); the mix of calls is not that of the screen. The call rests on the fitted dose curve; in most records, active means well fitted cell-killing curve with a large enough effect; inconclusive means small, poorly fitted or top-dose-only effect, or effect the other way; inactive means flat fitted curve, though single readings scatter. Where the call is inconclusive, the potency comes from a doubtful curve fit.

Test: qHTS assay for MDR1-selective chemotherapeutics: Primary screen using the parental adenocarcinoma cell KB-3-1; further: nearly all actives have a fitted effect of over 60% in size
Settings: KB-3-1 viability, CellTiter-Glo ATP luminescence, 72 h; activity change, negative = cytotoxic: at 46.1 µM (top of the series)
How it was run: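 Screening of KB-3-1 cells (DMEM, 10% FBS, phenol-red free) ran from lowest to highest compound concentration; after 72 h at 37 °C viability was read luminescently and curves fitted.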
On the % scale 0 is the no-effect control and ±100 the full control effect; potency means the concentration at half of the fitted maximal effect.

Row | SMILES | activity change, negative = cytotoxic | Potency
1 | O=c1oc2c(-c3ccc([N+](=O)[O-])cc3)cc(O)cc2s1 | inactive: -16.9% | –
2 | CCCc1cc(=O)n2[nH]c(C)c(-c3ccccc3)c2n1 | – | inconclusive: 25.9 µM [cytotoxic, single point]
3 | Cc1ccc(OCCn2cc(C(=O)c3ccco3)c3ccccc32)cc1C | inactive: -20% | –
4 | Cc1ccc(CCNc2nc3c(S(=O)(=O)c4ccccc4)nnn3c3ccsc23)cc1 | inactive: 12.3% | –
5 | O=C(NCCc1ccccc1)C(NS(=O)(=O)c1cccc2nsnc12)c1ccccc1 (centres undefined) | – | inconclusive: 0.517 µM [rising, full curve]
6 | Nc1nc(SCc2nc(-c3ccccc3)no2)[nH]c(=O)c1-c1ccccc1 | inactive: -27.9% | –
7 | COc1ccc(-n2nc(C#N)c(Cl)cc2=O)cc1 | – | inconclusive: 1.16 µM [cytotoxic, full curve, poor fit]
8 | CSc1ccc2c(c1)N(CCC1CCCCN1C)c1ccccc1S2 (centres undefined) | inactive: -9.58% | –
9 | Cc1noc(C)c1COc1cccc(C(=O)OCC(=O)N2CC(=O)Nc3ccccc32)c1 | – | active: 1.46 µM
10 | COc1ccc(-c2nc(CN3CCC(C(=O)N4CCOCC4)CC3)c(C)o2)c(OC)c1 | – | inconclusive: 16.4 µM [rising, partial curve, poor fit]
11 | COc1ccc(N(C)S(=O)(=O)c2cccc(C(=O)Nc3ccc(N4CCOCC4)cc3)c2)cc1 | – | inconclusive: 29.1 µM [cytotoxic, single point]
12 | Cn1nc(C(=O)N2CCN(c3ccc(Cl)cc3)CC2)c2c1-c1ccccc1S(=O)(=O)C2 | – | inconclusive: 18.4 µM [cytotoxic, partial curve, poor fit]
13 | Cc1c(N=NC2=C(O)CC(C)(C)CC2=O)cc2c(c1[N+](=O)[O-])C(C)(C)CC2(C)C | – | inconclusive: 0.116 µM [cytotoxic, full curve]
14 | O=C(CSc1nnc(-c2cccc(F)c2)o1)N1CCOCC1 | – | inconclusive: 29.1 µM [rising, single point]
15 | CCCCNC(=O)C[C@@H]1C[C@@]2(C(=O)OCC)CCCC=C2N(Cc2ccc(Cl)cc2Cl)C1=O | – | inconclusive: 29.1 µM [cytotoxic, single point]
16 | CCOc1ccc(NS(=O)(=O)c2ccc(C(=O)N3CC(C)OC(C)C3)cc2)cc1 (centres undefined) | – | inconclusive: 6.51 µM [cytotoxic, partial curve]
17 | CC1CCCCN1S(=O)(=O)c1cc2c(=O)nc3ccccn3c2cc1Cl (centres undefined) | inactive: 19.1% | –
18 | CN(C)c1ccc(/C=C/c2ccnc3c2ccc2c(/C=C/c4ccc(N(C)C)cc4)ccnc23)cc1 | – | inconclusive: 29.1 µM [cytotoxic, single point]
19 | COc1ccc(C2CC(O)(c3ccccc3)Oc3cc(OC)c(OC)c(OC)c32)cc1 (centres undefined) | inactive: 0% | –
20 | CC1(C(=O)NS(=O)(=O)c2ccc(F)cc2F)CCN1C(=O)C1(c2ccc(Cl)cc2)CCC1 (centres undefined) | – | inconclusive: 20.6 µM [cytotoxic, single point]
21 | O=C(CSc1nc(=O)n2ccccc2n1)N1CCCCCC1 | – | inconclusive: 29.1 µM [rising, single point]
22 | OC1(c2cccc(C(F)(F)F)c2)CCN(CCN2CCCCC2)CC1 | inactive: -6.38% | –
23 | COc1ccc(C2NC(=S)NC(C)=C2C(=O)Nc2ccccn2)cc1 (centres undefined) | – | inconclusive: 20.6 µM [cytotoxic, partial curve, poor fit]

Row | SMILES | activity change, negative = cytotoxic | Potency
24 | Oc1ccccc1CN1CCN(C(O)(c2ccccc2)c2ccccc2)CC1 | – | inconclusive: 20.6 µM [cytotoxic, single point]
25 | COc1ccc(C)c(Cn2c(-c3nonc3N)nc3ccccc32)c1 | – | active: 2.31 µM
26 | C=CCn1c(O)c(C=Nc2ccc(CN3CCCCC3)cc2)c(=O)[nH]c1=S | inconclusive: 129% | –
27 | Cc1ccc(S(=O)(=O)N(CC(=O)Nc2cccnc2)c2cccc(Br)c2)cc1 | – | inconclusive: 29.1 µM [cytotoxic, single point]
28 | CCCCCCCCCc1conc1C(=O)CP(=O)(OC)OC | – | inconclusive: 20.6 µM [cytotoxic, partial curve]
29 | C[C@H]1CN([C@@H](C)CO)C(=O)Cc2cc(NC(=O)CCC(F)(F)F)ccc2O[C@H]1CN(C)S(=O)(=O)c1ccc(F)cc1 | – | active: 5.17 µM
30 | CCOc1nc(C#N)nc(N(c2ccccc2)c2ccccc2)n1 | – | inconclusive: 18.4 µM [rising, partial curve, poor fit]
31 | CC(C)CCn1c(CN2CCN(c3cccc(Cl)c3)CC2)nc2c1c(=O)n(C)c(=O)n2C | – | inconclusive: 29.1 µM [cytotoxic, single point]
32 | Cc1nn(-c2ccccc2)c(C)c1NC(=O)COc1cc(F)ccc1[N+](=O)[O-] | – | inconclusive: 23.1 µM [cytotoxic, single point]
33 | CCNC(=O)c1c(C)oc2ncn(C)c(=O)c12 | inactive: 3.2% | –
34 | Cc1c(NC(=O)COC(=O)Cc2ccc(Br)cc2)c(=O)n(-c2ccccc2)n1C | – | inconclusive: 18.4 µM [cytotoxic, partial curve, poor fit]
35 | CCc1ccc(CNC(=O)CSc2cc(=O)n(CC)c3ccccc23)cc1 | – | inconclusive: 29.1 µM [cytotoxic, single point]
36 | O=C(Nc1ccc(Nc2ccccc2)cc1)c1ccc(Cl)cc1 | inactive: 3.63% | –
37 | O=C1C(Cl)=C(NCCCO)C(=O)c2ccccc21 | – | active: 23.1 µM
38 | O=S(=O)(c1ccc(Cl)cc1)N1CCCC(c2nc(-c3ccc(F)cc3)no2)C1 (centres undefined) | inactive: -19.2% | –
39 | COc1ccc(N(CC(=O)N2CCN(Cc3ccccc3)CC2)S(C)(=O)=O)cc1Cl | – | inconclusive: 29.1 µM [cytotoxic, single point]
40 | Cc1noc(C)c1COC(=O)c1ccc(N(C)C)cc1 | – | inconclusive: 16.4 µM [cytotoxic, single point]
41 | Cc1ccc(N2CCN(S(=O)(=O)c3cccs3)CC2C)cc1 (centres undefined) | – | inconclusive: 11.6 µM [cytotoxic, partial curve]
42 | CCOc1ccc(-n2c(=O)c3c4c(sc3n(Cc3cccc(C)c3)c2=O)CCCC4)cc1 | – | inconclusive: 29.1 µM [rising, single point]
43 | CCc1nc2c(OCc3ccc(Cl)cc3Cl)cccn2c1N(C)C(=O)C(C)C | – | inconclusive: 29.1 µM [cytotoxic, single point]
44 | CCc1ccc(NC(=S)NC2CC3CCCC(C2)N3Cc2ccccc2)cc1 (centres undefined) | inactive: -7.74% | –
45 | COc1cc2c(cc1OC)C(c1cccs1)N(C(=O)c1cccnc1)CC2 (centres undefined) | – | active: 5.8 µM
46 | CCOc1ccc(CC2NCCc3cc(OCC)c(OCC)cc32)cc1OCC (centres undefined) | – | inconclusive: 18.4 µM [cytotoxic, partial curve]

Quoted from the listing.
CCOc1ccc(NS(=O)(=O)c2ccc(C(=O)N3CC(C)OC(C)C3)cc2)cc1 (centres undefined) | Potency: inconclusive: 6.51 µM [cytotoxic, partial curve]
Cc1c(N=NC2=C(O)CC(C)(C)CC2=O)cc2c(c1[N+](=O)[O-])C(C)(C)CC2(C)C | Potency: inconclusive: 0.116 µM [cytotoxic, full curve]
COc1ccc(C2NC(=S)NC(C)=C2C(=O)Nc2ccccn2)cc1 (centres undefined) | Potency: inconclusive: 20.6 µM [cytotoxic, partial curve, poor fit]

(cont.)

Row | SMILES | activity change, negative = cytotoxic | Potency
47 | Cc1nnc(NC(=O)CSc2nccn2-c2cccc(C)c2C)s1 | – | active: 3.66 µM
48 | CC(=O)N1c2ccc(S(=O)(=O)N3CCC(C(=O)Nc4cccc(C(F)(F)F)c4)CC3)cc2CC1C (centres undefined) | – | inconclusive: 29.1 µM [cytotoxic, single point]
49 | COc1ccc(Nc2nc(-c3sc(C)nc3C)cs2)cc1 | – | active: 5.8 µM
50 | CCOC(=O)C1CCCN(C(=O)c2cc3c(-c4cccc(OC)c4)nn(C)c3s2)C1 (centres undefined) | – | inconclusive: 29.1 µM [cytotoxic, single point]
51 | COc1cccc(NC(=O)c2ncc(Cl)c(Cl)c2Cl)c1 | – | inconclusive: 23.1 µM [cytotoxic, single point]
52 | Cc1cccc(OCCN2CSC(=S)N(C)C2)c1 | – | active: 8.2 µM
53 | COc1cc2c3c(cccc3c1)C(=O)N(CCN1CCCC1)C2=O | – | inconclusive: 1.84 µM [cytotoxic, partial curve, poor fit]
54 | O=C(Nc1ccc(Br)cc1F)C(NS(=O)(=O)c1cccc2nsnc12)c1ccccc1 (centres undefined) | inactive: 0.0245% | –
55 | Cc1cc(C(=O)NCc2cccnc2)n(-c2ccccc2)n1 | – | inconclusive: 13 µM [rising, partial curve]
56 | COC(=O)c1ccc2nc(-c3ccccc3)c(Cc3ccc(C)cc3)n2c1 | – | inconclusive: 20.6 µM [cytotoxic, single point]
57 | CCOC(=O)c1sc(NC(=O)/C=C/c2ccccc2)nc1C | – | inconclusive: 29.1 µM [rising, single point]
58 | COC(=O)C(NC(=O)C(CC(C)C)NC(=O)C1CCC(C)CC1)C(C)C (centres undefined) | inactive: 2.39% | –
59 | Cc1ccc(NS(=O)(=O)c2cc(NC(=O)c3ccc4c(c3)NC(=O)CS4)ccc2C)c(C)c1 | – | inconclusive: 23.1 µM [cytotoxic, partial curve, poor fit]
60 | O=C(Cn1ncc(Cl)c(Cl)c1=O)c1ccc2c(c1)OCCO2 | – | inconclusive: 20.6 µM [cytotoxic, single point]
61 | CCCCC(CC)C(=O)Nc1ncc([N+](=O)[O-])s1 (centres undefined) | – | inconclusive: 23.1 µM [cytotoxic, partial curve]
62 | CC(C)(C)C1CCc2c(sc(NC(=O)c3noc4c3CCCC4)c2C#N)C1 (centres undefined) | inactive: 22.6% | –
63 | COc1ccccc1NC(=O)CSc1cn(CC(=O)N2CCCC2)c2ccccc12 | inactive: 2.87% | –
64 | CCOC(=O)c1c(C)[nH]c(C(C)=O)c1C | – | inconclusive: 4.61 µM [cytotoxic, partial curve, poor fit]
65 | O=c1[nH]/c(=C/c2ccc3c(c2)OCO3)c(=O)[nH]/c1=C\c1ccc2c(c1)OCO2 | – | inconclusive: 13 µM [rising, partial curve]
66 | C=C(C)COc1ccc(-c2[nH]ncc2Oc2ccccc2OCC)c(O)c1 | – | inconclusive: 29.1 µM [cytotoxic, single point]
67 | CCOCCCNC(=O)c1ccc2c(=O)n(CCCOCC)c(=S)[nH]c2c1 | – | inconclusive: 0.184 µM [rising, full curve, poor fit]
68 | O=C(c1ccco1)N1CCN(C2CC(=O)N(c3ccc(F)c(Cl)c3)C2=O)CC1 (centres undefined) | inactive: -5.55% | –
69 | CC(C)Cc1c(O)nc(SCCN2CCOCC2)[nH]c1=O | – | inconclusive: 16.4 µM [rising, partial curve, poor fit]
